In publication PMC6318295, “Plant HP1 protein ADCP1 links multivalent H3K9 methylation readout to heterochromatin formation” (Cell Research, 2018):
Entries after “also recorded” stand apart in the source; their conditions may differ.

System: H3K9me3 NA
Test: Phase separation with H3K9me3 nucleosome array
Details: ADCP1 15 μM, H3K9me3 2.2 μM; HP1A and HP1α 25 μM with H3K9me3 0.84 μM; 1 h room temperature

## HP1α: human HP1α, Heterochromatin Protein 1
  phase separation / puncta formation with H3K9me3 NA: H3K9me3 NA promotes phase transition of HP1α and HP1a in comparison with native NA

## HP1a: fly HP1a, Heterochromatin Protein 1
  phase separation / puncta formation with H3K9me3 NA: H3K9me3 NA promotes phase transition of HP1α and HP1a in comparison with native NA

B1: ADCP1: plant-specific poly-Agenet protein comprising three tandem Agenet modular domains (protein)
chain: MLRPRRSLGVSSPAKQRKKAAPKNSMATRANRKRLPSYLKPGSAVEISSDEIGFRGSWYMGKVITIPSSSDKDSVKCQVEYTTLFFDKEGTKPLKEVVDMSQLRPPAPPMSEIEKKKKIVVGEEVDAFYNDGWWEGDVTEVLDDGKFSVFFRSSKEQIRFRKDELRFHREWVDGAWKPPLEETEEEEDESEEDKLDDSEDEEDILARVDLETTRAIAKQMFSSGTVVEVSSDEEGFQGCWFAAKVVEPVGEDKFLVEYRDLREKDGIEPLKEETDFLHIRPPPPRDEDIDFAVGDKINAFYNDGWWVGVVIDGMKHGTVGIYFRQSQEKMRFGRQGLRLHKDWVDGTWQLPLKGGKIKREKTVSCNRNVRPKKATEKQAFSIGTPIEVSPEEEGFEDSWFLAKLIEYRGKDKCLVEYDNLKAEDGKEPLREEVNVSRIRPLPLESVMVSPFERHDKVNALYNDGWWVGVIRKVLAKSSYLVLFKNTQELLKFHHSQLRLHQEWIDGKWITSFKSQKV
  phase separation / puncta formation with H3K9me3 NA: forms DNA-rich puncta with H3K9me3 NA; also recorded: form phase transition with ADCP1
